PubChem BioAssay AID1259405 – NCATS, 2018

- Assay: 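Mouse-designed siRNAs used to find CHO productivity engineering targets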 (primary screen)
- System: Chinese hamster CHO-K1 ovary cells with stable secreted eGFP expression
- Reagent: single siRNA against mouse genes, 0.8 pmol siRNA per well (2 µl of 400 nM stock)
- Time to read-out: 3 days
- Detection: 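Per-well intracellular GFP measured by laser scanning cytometry, plus viability from ATP luminescence, each relative to plate median of non-targeting control wells, in %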
- Direction: GFP, % of control: higher = more GFP per well, higher productivity; viability (ATP), % of control: higher = more viable cells (more ATP)
- Rule for the call: 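Called active when intracellular GFP, relative to negative control, is at or above 120%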
In all, the deposit lists about 50,000 reagents; below is a part drawn at random. About 4,000 of all reagents (8%) were called active. 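Mouse siRNA library applied to hamster cells; one well for each siRNA.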 Unmarked entries are inactive. The numbers tell different reagents against one gene apart.

Silencing of Inpp1 #1 resulted in: GFP, % of control 71.9; viability (ATP), % of control 40.3.
Knock-down of Inpp1 #2 came out at: GFP, % of control 39.9; viability (ATP), % of control 75.4.
Knock-down of Inpp1 #3 came out at: GFP, % of control 94.4; viability (ATP), % of control 80.8.
Silencing of Arrb2 #1 gave: GFP, % of control 67.2; viability (ATP), % of control 27.6.
With knock-down of Arrb2 #2 the results were GFP, % of control 53.4; viability (ATP), % of control 52.9.
Knock-down of Arrb2 #3 came out at: GFP, % of control 90.7; viability (ATP), % of control 62.1.
Depletion of Mab21l3 #1 gave: GFP, % of control 58.1; viability (ATP), % of control 66.4.
For Mab21l3 #2, the values are GFP, % of control 76.9; viability (ATP), % of control 93.2.
Depletion of Mab21l3 #3 came out at: GFP, % of control 89.1; viability (ATP), % of control 85.6.
Knock-down of Hif1a #1 came out at: GFP, % of control 90.3; viability (ATP), % of control 52.6.
Knock-down of Hif1a #2 came out at: GFP, % of control 96.5; viability (ATP), % of control 97.8.
Against Tmem115 #1, the values are GFP, % of control 94.5; viability (ATP), % of control 112.
After knock-down of Tmem115 #2, the screen gave GFP, % of control 75.1; viability (ATP), % of control 83.2.
Depletion of Tmem115 #3 gave: GFP, % of control 36.2; viability (ATP), % of control 40.2.
Against Peg10 #1 the deposit lists GFP, % of control 50.1; viability (ATP), % of control 41.6.
For Peg10 #2, the values are GFP, % of control 83.1; viability (ATP), % of control 79.
After knock-down of Peg10 #3, the record shows GFP, % of control 80.2; viability (ATP), % of control 76.9.
Silencing of Vax1 #1 came out at: GFP, % of control 84.9; viability (ATP), % of control 78.9.
Against Vax1 #2, the values are GFP, % of control 62.8; viability (ATP), % of control 72.8.
For Klhl11 #1 the deposit lists GFP, % of control 87.8; viability (ATP), % of control 96.4.
Against Klhl11 #2, the values are GFP, % of control 91.8; viability (ATP), % of control 84.9.
With knock-down of Klhl11 #3, the record shows GFP, % of control 108; viability (ATP), % of control 84.2.

3 entries from above, reformatted.
Hif1a #2
- GFP, % of control: 96.5
- viability (ATP), % of control: 97.8

Tmem115 #1
- GFP, % of control: 94.5
- viability (ATP), % of control: 112

Tmem115 #2
- GFP, % of control: 75.1
- viability (ATP), % of control: 83.2

Further records follow:
Prlr #1 showed GFP, % of control 107; viability (ATP), % of control 114.
After knock-down of Prlr #2 the results were GFP, % of control 40.3; viability (ATP), % of control 73.5.
After knock-down of Prlr #3, the screen gave GFP, % of control 72; viability (ATP), % of control 68.9.
Silencing of Pgm1 #1 resulted in: GFP, % of control 66.9; viability (ATP), % of control 81.
Pgm1 #2 showed GFP, % of control 106; viability (ATP), % of control 77.9.
Depletion of Pgm1 #3 resulted in: GFP, % of control 68.3; viability (ATP), % of control 71.9.
For Prepl #1, the values are GFP, % of control 98.4; viability (ATP), % of control 94.9.
Prepl #2 gave GFP, % of control 62.6; viability (ATP), % of control 99.5.
With knock-down of Prepl #3, the record shows GFP, % of control 38.2; viability (ATP), % of control 27.8.
Against Rarb #1 the deposit lists GFP, % of control 62.5; viability (ATP), % of control 53.7.
Silencing of Rarb #2 resulted in: GFP, % of control 80.4; viability (ATP), % of control 84.3.
With knock-down of Rarb #3 the results were GFP, % of control 63.2; viability (ATP), % of control 59.1.
Fxyd1 #1 scored GFP, % of control 133 (active); viability (ATP), % of control 76.
With knock-down of Fxyd1 #2, the screen gave GFP, % of control 53.8; viability (ATP), % of control 56.6.
Knock-down of Fxyd1 #3 came out at: GFP, % of control 74; viability (ATP), % of control 70.2.
Tfb2m #1 scored GFP, % of control 138 (active); viability (ATP), % of control 89.8.
Depletion of Tfb2m #2 resulted in: GFP, % of control 64; viability (ATP), % of control 77.3.
Silencing of Eif2ak3 resulted in: GFP, % of control 79.7; viability (ATP), % of control 83.1.
